Assay [1] concerns the target Sigma‐1 receptor (Sigmar1), 3×FLAG-tagged (not stated (human or mouse cDNA cloned)) (UniProt O55242). In words: co-IP; HEK‐293T cells transfected with the indicated plasmids for 48 h; lysates precipitated with Flag‐tag or Myc‐tag mouse mAb at 4°C overnight, protein A/G beads, western blotting.
The target of assay [2] is Sigmar1, endogenous in mouse BMMs (mouse (endogenous in BMMs)) (UniProt O55242). Briefly: co-IP; endogenous proteins; lysates of mouse BMMs incubated with anti‐Sigmar1 antibody or normal rabbit IgG, protein A/G beads, western blotting. In general terms: Immunoblotting shows a protein as a band on a membrane.
Assay [3] concerns the target C‐terminus of Sigmar1 (31–223 aa) (mouse) (UniProt O55242). Briefly: co-IP; HEK‐293T cells transfected with the indicated plasmids for 48 h; lysates precipitated with Flag‐tag or Myc‐tag mouse mAb at 4°C overnight, protein A/G beads, western blotting.

The chains behind the UniProt entries cited, without tags or fusion partners. Where a name states a change or a piece, a line headed by the entry shows the natural chain unless it says otherwise. A line that says so, or that is headed by a name, gives the form on record, which may keep a tag or linker. Residues count along the entry.
UniProt O55242: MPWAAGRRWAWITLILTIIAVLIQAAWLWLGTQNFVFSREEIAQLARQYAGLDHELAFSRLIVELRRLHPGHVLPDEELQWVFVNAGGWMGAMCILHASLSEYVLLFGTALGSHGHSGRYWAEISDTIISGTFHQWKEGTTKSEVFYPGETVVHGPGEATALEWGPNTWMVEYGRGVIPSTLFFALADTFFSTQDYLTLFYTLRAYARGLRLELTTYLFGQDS
C‐terminus of Sigmar1 (31–223 aa): residues 31-223 of O55242
UniProt O55143: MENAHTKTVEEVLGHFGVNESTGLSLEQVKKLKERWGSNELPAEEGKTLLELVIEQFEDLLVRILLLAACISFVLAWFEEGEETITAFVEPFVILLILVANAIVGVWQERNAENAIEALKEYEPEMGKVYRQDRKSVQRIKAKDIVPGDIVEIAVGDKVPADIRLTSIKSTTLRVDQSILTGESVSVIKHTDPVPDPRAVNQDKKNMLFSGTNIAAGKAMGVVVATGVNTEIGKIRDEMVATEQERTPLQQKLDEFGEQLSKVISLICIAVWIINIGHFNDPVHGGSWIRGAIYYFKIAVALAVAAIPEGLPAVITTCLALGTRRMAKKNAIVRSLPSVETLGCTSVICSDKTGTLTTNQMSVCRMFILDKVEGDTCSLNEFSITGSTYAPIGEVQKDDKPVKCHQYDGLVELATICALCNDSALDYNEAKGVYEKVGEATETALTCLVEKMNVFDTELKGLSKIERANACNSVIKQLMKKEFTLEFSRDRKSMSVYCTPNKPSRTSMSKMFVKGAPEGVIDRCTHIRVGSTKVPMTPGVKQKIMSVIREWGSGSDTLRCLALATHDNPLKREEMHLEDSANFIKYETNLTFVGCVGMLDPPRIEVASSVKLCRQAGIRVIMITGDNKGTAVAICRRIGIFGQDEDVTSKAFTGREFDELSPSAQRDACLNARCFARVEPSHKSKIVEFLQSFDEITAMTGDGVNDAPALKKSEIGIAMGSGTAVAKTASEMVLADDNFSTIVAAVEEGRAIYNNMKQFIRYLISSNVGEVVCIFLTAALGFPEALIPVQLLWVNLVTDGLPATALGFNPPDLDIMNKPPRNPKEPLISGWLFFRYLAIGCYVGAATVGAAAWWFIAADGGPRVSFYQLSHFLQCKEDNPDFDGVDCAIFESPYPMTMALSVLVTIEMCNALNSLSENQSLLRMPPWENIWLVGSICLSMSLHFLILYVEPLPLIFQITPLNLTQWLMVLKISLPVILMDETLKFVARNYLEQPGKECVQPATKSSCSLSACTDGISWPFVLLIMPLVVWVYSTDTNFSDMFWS
SERCA2 truncation (314–807 aa) with the Q615A mutation (O55143, form named): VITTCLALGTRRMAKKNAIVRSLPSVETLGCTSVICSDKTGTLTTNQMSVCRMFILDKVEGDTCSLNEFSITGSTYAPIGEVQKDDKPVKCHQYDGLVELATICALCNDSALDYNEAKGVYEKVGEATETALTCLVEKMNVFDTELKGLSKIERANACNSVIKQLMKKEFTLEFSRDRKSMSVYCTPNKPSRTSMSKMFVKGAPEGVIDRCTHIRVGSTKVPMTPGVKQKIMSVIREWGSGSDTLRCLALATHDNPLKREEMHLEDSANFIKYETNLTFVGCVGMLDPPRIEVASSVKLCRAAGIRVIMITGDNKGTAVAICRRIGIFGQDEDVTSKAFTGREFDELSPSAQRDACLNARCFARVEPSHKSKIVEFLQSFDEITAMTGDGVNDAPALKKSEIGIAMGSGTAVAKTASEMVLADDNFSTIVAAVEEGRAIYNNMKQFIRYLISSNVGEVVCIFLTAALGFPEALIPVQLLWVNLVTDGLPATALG

No constants are given. Whether binding was seen depends on the method and setting. In cells and extracts the contact can be indirect. Some entries that bind do so weakly or less than the wild type.

On to “SERCA2 truncation (314–807 aa) with the Q615A mutation (from UniProt O55143 314-807) (domain or fragment)”, for which the binding entry in assay [1] is reported as “binds weakly”.
With “SERCA2 truncation‐3 (314–807 aa) (from UniProt O55143 314-807) (domain or fragment)”, the binding entry in assay [1] is given as “binds”.
Take “SERCA2, endogenous in mouse BMMs (from UniProt O55143 1-1044) (enzyme)”: the binding entry in assay [2] is listed as “binds”.
On to “full‐length SERCA2 with the Q615A mutation (from UniProt O55143 1-1044) (enzyme)”, for which the binding result in assay [1] was “binds weakly”.
Take “mouse SERCA2, 3×MYC-tagged, full length (from UniProt O55143 1-1044) (enzyme)”: the binding result in assay [3] and in assay [1] was “binds” throughout.
